# PubChem BioAssay AID298 (DTP/NCI, 2004)
# The list does not hold the whole screen: it is rich in T/C values a quarter to a half above the control, in often repeated tests (any T/C) and in doses without a T/C. Other doses and runs of a compound stand elsewhere. T/C is the treated group as % of the vehicle group. Schedule codes are those of the source, taken here to give the interval after Q, in days (D) or hours (H), and the number of doses after X. Marks such as (2×) say how often a value occurs here. Some T/C values are followed by the survivors on the day toxicity was checked, most often the fifth; where none is given, no animal had died by that day. Some doses have a count of surviving animals in place of a T/C: the source files T/C as zero there, which appears to mark a toxic dose or a test without result, not a measured value. Counts of survivors are from the toxicity check (mostly the fifth day) where no day follows; animals may have died later. Some entries hold several experiments; the results are listed from low to high.
# System: MX-1 breast xenograft, intrarenal, nude mice, tumor weight
# Assay: NCI In Vivo Anticancer Drug Screen. Data for tumor model Human Mammary Carcinoma MX-1 Xenograft (intrarenal inoculation) in NU/NU BALB/C (nude) mice
# Settings: T/C endpoint: mean tumor weight change, higher T/C = larger tumour; for T/C: evaluated on day 11
# Procedure, shortened: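 Efficacy in vivo: tumor measurement or survival of treated animals divided by that of vehicle-dosed controls.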
# [1] = dose: 800.0 mg/kg/injection, schedule: Q04DX003 (ip), vehicle: saline with Tween-80
# [2] = dose: 300.0 mg/kg/injection, schedule: Q04DX003 (ip), vehicle: Klucel (hydroxypropylcellulose) (HPC)
# [3] = dose: 600.0 mg/kg/injection, schedule: Q04DX003 (ip), vehicle: Klucel (hydroxypropylcellulose) (HPC)
# [4] = dose: 1200.0 mg/kg/injection, schedule: Q04DX003 (ip), vehicle: Klucel (hydroxypropylcellulose) (HPC)
smiles,measurement,setting,value
CCc1nc(N)nc(N)c1-c1ccc(Cl)c(N=[N+]=[N-])c1,survivor count,"dose: 134.0 mg/kg/injection, schedule: Q04DX003 (ip), vehicle: water",0 of 6 on day 11
same,survivor count,"dose: 268.0 mg/kg/injection, schedule: Q04DX003 (ip), vehicle: water",0 of 6 on day 11
same,survivor count,"dose: 536.0 mg/kg/injection, schedule: Q04DX003 (ip), vehicle: water",0 of 6 on day 11
CCCCCCSc1nc(COC(=O)NC)c(COC(=O)NC)n1C,T/C,"dose: 67.5 mg/kg/injection, schedule: Q04DX003 (ip), vehicle: saline",126 % of control (2×)
same,survivor count,"dose: 270.0 mg/kg/injection, schedule: Q04DX003 (ip), vehicle: saline",3 of 6 on day 11
O=S(=O)(CCl)OCCCl,survivor count,"dose: 200.0 mg/kg/injection, schedule: Q04DX003 (sc), vehicle: saline with Tween-80",0 of 6 on day 11
Cc1ccc2c(c1)C1(SC(C)C(=O)N1c1ccc(Cl)cc1)C(=O)N2 (stereo not drawn),T/C,"dose: 400.0 mg/kg/injection, schedule: Q04DX003 (ip), vehicle: saline with Tween-80",125 % of control [5 of 6 alive on day 11]
Cc1c(N)nc(C(CC(N)=O)NCC(N)C(N)=O)nc1C(=O)NC(C(=O)NC(C)C(O)C(C)C(=O)NC(C(=O)NCCc1nc(-c2nc(C(=O)NCCCNC(C)c3ccccc3)cs2)cs1)C(C)O)C(OC1OC(CO)C(O)C(O)C1OC1OC(CO)C(O)C(OC(N)=O)C1O)c1cnc[nH]1 (stereo not drawn),survivor count,"dose: 64.0 mg/kg/injection, schedule: Q01DX010 (sc), vehicle: saline",0 of 6 on day 11
CN1CCN(c2ccc([N+](=O)[O-])c3no[n+]([O-])c23)CC1,survivor count,"dose: 300.0 mg/kg/injection, schedule: Q04DX003 (sc), vehicle: saline with Tween-80",2 of 6 on day 11
O=C(O)c1cc(C(=O)O)c(C(=O)O)cc1C(=O)O.[NH2-].[NH2-].[NH2-].[NH2-].[Pt+2].[Pt+2],survivor count,"dose: 80.0 mg/kg/injection, schedule: Q04DX003 (ip), vehicle: water",1 of 6 on day 11
N#Cc1c(N)[nH]c2ccc(Sc3ccccc3)cc12,survivor count,"dose: 240.0 mg/kg/injection, schedule: Q04DX003 (ip), vehicle: saline with Tween-80",3 of 5 on day 11
Cc1ccc(C2=CSC3=NCCN23)cc1Cl,survivor count,"dose: 75.0 mg/kg/injection, schedule: Q04DX003 (ip), vehicle: saline",0 of 6 on day 11
same,survivor count,"dose: 150.0 mg/kg/injection, schedule: Q04DX003 (ip), vehicle: saline",0 of 6 on day 11
same,survivor count,"dose: 300.0 mg/kg/injection, schedule: Q04DX003 (ip), vehicle: saline",0 of 6 on day 11
NNC(=S)N/N=C/c1ccccn1,survivor count,"dose: 120.0 mg/kg/injection, schedule: Q04DX003 (sc), vehicle: saline with Tween-80",0 of 6 on day 11
C=C1COC(O)(C2OCOC(C3CC(=O)NC(=O)C3)C2O)C1C (stereo not drawn),T/C,"dose: 75.0 micrograms/kg/injection, schedule: Q04DX003 (ip), vehicle: water",139 % of control [5 of 6 alive on day 11]
same,survivor count,"dose: 150.0 micrograms/kg/injection, schedule: Q04DX003 (ip), vehicle: water",1 of 6 on day 11
same,survivor count,"dose: 300.0 micrograms/kg/injection, schedule: Q04DX003 (ip), vehicle: water",0 of 6 on day 11
NC(=S)c1ncn(C2OC(COC=O)C(OC=O)C2OC=O)c1NC=O (stereo not drawn),survivor count,"dose: 800.0 mg/kg/injection, schedule: Q04DX003 (ip), vehicle: Klucel (hydroxypropylcellulose) (HPC)",1 of 6 on day 11
same,survivor count,[1],1 of 6 on day 11
N#CC(C#N)=NNc1ccc2cn[nH]c2c1,T/C,"dose: 25.0 mg/kg/injection, schedule: Q04DX003 (ip), vehicle: Klucel (hydroxypropylcellulose) (HPC)",139 % of control
same,survivor count,"dose: 150.0 mg/kg/injection, schedule: Q04DX003 (ip), vehicle: Klucel (hydroxypropylcellulose) (HPC)",2 of 6 on day 11
same,survivor count,[2],2 of 6 on day 11
same,survivor count,[3],0 of 6 on day 11
same,survivor count,[4],0 of 5 on day 11
O=C1c2c(O)cccc2-c2nn(CCNCCO)c3ccc(NCCNCCO)c1c23,survivor count,"dose: 22.0 mg/kg/injection, schedule: Q04DX003 (ip), vehicle: water",1 of 6 on day 11
Cc1ccc(C(=O)NC2C(=O)NC(C(C)C)C(=O)N3CCCC3C(=O)N(C)CC(=O)N(C)C(C(C)C)C(=O)OC2C)c2c1Oc1c(c(C(=O)NC3C(=O)NC(C(C)C)C(=O)N4CCCC4C(=O)N(C)CC(=O)N(C)C(C(C)C)C(=O)OC3C)c3nc(-c4ccccc4)c(=O)oc3c1C)N2 (stereo not drawn),survivor count,"dose: 2.0 mg/kg/injection, schedule: Q04DX003 (ip), vehicle: water",0 of 6 on day 11 and 1 of 6 on day 11
same,survivor count,"dose: 4.0 mg/kg/injection, schedule: Q04DX003 (ip), vehicle: water",0 of 6 on day 11 and 1 of 6 on day 11
same,survivor count,"dose: 8.0 mg/kg/injection, schedule: Q04DX003 (ip), vehicle: water",0 of 6 on day 11
same,survivor count,"dose: 16.0 mg/kg/injection, schedule: Q04DX003 (ip), vehicle: water",0 of 6 on day 11
CN(C)[C@@H]1C(=O)C(C(N)=O)=C(O)[C@@]2(O)C(=O)C3=C(O)c4c(O)ccc(Cl)c4[C@@](C)(O)[C@H]3C[C@@H]12,T/C,"dose: 600.0 mg/kg/injection, schedule: Q04DX003 (sc), vehicle: saline",147 % of control
COc1ccc(Cl)[n+]([O-])n1,survivor count,"dose: 200.0 mg/kg/injection, schedule: Q04DX003 (sc), vehicle: Klucel (hydroxypropylcellulose) (HPC)",0 of 6 on day 11
O=C(Nc1cc(Cl)ccc1C(=O)O)c1cccc(C[n+]2ccccc2)c1,survivor count,"dose: 1200.0 mg/kg/injection, schedule: Q04DX003 (ip), vehicle: saline with Tween-80",0 of 6 on day 11
CC1=C(C(N)=O)C(c2ccccc2)NC(=S)N1 (stereo not drawn),survivor count,[2],3 of 6 on day 11
same,survivor count,[3],1 of 6 on day 11
same,survivor count,[4],0 of 6 on day 11
COc1cc2oc3c(C)c(=O)cc4oc(-c5ccccc5)cc(c2c2c1CCC(c1ccccc1)O2)c43 (stereo not drawn),T/C,"dose: 7.0 mg/kg/injection, schedule: Q04DX003 (ip), vehicle: Klucel (hydroxypropylcellulose) (HPC)",137 % of control [5 of 6 alive on day 11]
same,survivor count,"dose: 14.0 mg/kg/injection, schedule: Q04DX003 (ip), vehicle: Klucel (hydroxypropylcellulose) (HPC)",2 of 4 on day 11
Clc1cccc(Cl)c1C(Nc1nncs1)Nc1nncs1,survivor count,[1],1 of 6 on day 11
COC1=C(C)C(=O)C2=C(C1=O)C(CO)N1C(C#N)C3CC4C(C1C2N1CCOC41)N3C (stereo not drawn),survivor count,"dose: 4.17 mg/kg/injection, schedule: Q04DX003 (ip), vehicle: acid diluted with saline",2 of 6 on day 11
same,survivor count,"dose: 5.0 mg/kg/injection, schedule: Q04DX003 (ip), vehicle: acid diluted with saline",0 of 6 on day 11
same,survivor count,"dose: 10.0 mg/kg/injection, schedule: Q04DX003 (ip), vehicle: acid diluted with saline",0 of 6 on day 11
same,survivor count,"dose: 10.0 mg/kg/injection, schedule: Q04DX003 (ip), vehicle: saline + alcohol",0 of 6 on day 11
same,survivor count,"dose: 20.0 mg/kg/injection, schedule: Q04DX003 (ip), vehicle: saline + alcohol",0 of 6 on day 11
CC[C@](C)(O)C(=O)O[C@H]1C(=O)O[C@@H]2C[C@H]3C(C)=CC(=O)[C@@H](O)[C@]3(C)[C@H]3[C@@]4(O)OC[C@]32[C@@H]1[C@@H](C)[C@H]4O,survivor count,"dose: 1.0 mg/kg/injection, schedule: Q01DX010 (sc), vehicle: Klucel (hydroxypropylcellulose) (HPC)",2 of 6 on day 11
same,survivor count,"dose: 2.0 mg/kg/injection, schedule: Q01DX010 (sc), vehicle: Klucel (hydroxypropylcellulose) (HPC)",0 of 6 on day 11
CS(=O)(=O)OCCN(CCOS(C)(=O)=O)c1ccc(C=Nc2ccc(-c3csc(COc4ccccc4)n3)cc2)cc1,survivor count,"dose: 400.0 mg/kg/injection, schedule: Q01DX010 (sc), vehicle: Klucel (hydroxypropylcellulose) (HPC)",0 of 3 on day 11
COC(=O)NC1C(C)OC(OC2C/C=C(/C)C3C=CC4C(OC5CC(OC6CC(OC7CC(O)C(O)C(C)O7)C(OC7CC(O)C(OC)C(C)O7)C(C)O6)C(O)C(C)O5)C(C)CC(C)C4C3(C)/C(O)=C3\C(=O)OC4(CC(C)C(CO)=CC4/C=C\2C)C3=O)CC1(C)[N+](=O)[O-] (stereo not drawn),survivor count,"dose: 600.0 mg/kg/injection, schedule: Q04DX003 (ip), vehicle: water",0 of 6 on day 11
